# Measurements published in article PMC12594857.
# Sequences of proteins named here, by UniProt entry; tags and fusion partners are left off.
# UniProt O14965: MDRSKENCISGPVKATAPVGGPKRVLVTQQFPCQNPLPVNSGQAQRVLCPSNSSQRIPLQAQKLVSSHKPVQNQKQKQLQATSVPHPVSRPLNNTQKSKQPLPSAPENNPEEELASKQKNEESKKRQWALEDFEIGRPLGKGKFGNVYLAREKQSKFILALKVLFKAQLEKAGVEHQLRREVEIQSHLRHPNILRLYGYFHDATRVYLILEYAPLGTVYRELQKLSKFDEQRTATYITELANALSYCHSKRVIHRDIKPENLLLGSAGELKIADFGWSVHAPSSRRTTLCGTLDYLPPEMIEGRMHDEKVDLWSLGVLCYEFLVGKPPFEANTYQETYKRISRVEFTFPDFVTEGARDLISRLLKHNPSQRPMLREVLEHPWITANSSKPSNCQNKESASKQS
# UniProt O95347: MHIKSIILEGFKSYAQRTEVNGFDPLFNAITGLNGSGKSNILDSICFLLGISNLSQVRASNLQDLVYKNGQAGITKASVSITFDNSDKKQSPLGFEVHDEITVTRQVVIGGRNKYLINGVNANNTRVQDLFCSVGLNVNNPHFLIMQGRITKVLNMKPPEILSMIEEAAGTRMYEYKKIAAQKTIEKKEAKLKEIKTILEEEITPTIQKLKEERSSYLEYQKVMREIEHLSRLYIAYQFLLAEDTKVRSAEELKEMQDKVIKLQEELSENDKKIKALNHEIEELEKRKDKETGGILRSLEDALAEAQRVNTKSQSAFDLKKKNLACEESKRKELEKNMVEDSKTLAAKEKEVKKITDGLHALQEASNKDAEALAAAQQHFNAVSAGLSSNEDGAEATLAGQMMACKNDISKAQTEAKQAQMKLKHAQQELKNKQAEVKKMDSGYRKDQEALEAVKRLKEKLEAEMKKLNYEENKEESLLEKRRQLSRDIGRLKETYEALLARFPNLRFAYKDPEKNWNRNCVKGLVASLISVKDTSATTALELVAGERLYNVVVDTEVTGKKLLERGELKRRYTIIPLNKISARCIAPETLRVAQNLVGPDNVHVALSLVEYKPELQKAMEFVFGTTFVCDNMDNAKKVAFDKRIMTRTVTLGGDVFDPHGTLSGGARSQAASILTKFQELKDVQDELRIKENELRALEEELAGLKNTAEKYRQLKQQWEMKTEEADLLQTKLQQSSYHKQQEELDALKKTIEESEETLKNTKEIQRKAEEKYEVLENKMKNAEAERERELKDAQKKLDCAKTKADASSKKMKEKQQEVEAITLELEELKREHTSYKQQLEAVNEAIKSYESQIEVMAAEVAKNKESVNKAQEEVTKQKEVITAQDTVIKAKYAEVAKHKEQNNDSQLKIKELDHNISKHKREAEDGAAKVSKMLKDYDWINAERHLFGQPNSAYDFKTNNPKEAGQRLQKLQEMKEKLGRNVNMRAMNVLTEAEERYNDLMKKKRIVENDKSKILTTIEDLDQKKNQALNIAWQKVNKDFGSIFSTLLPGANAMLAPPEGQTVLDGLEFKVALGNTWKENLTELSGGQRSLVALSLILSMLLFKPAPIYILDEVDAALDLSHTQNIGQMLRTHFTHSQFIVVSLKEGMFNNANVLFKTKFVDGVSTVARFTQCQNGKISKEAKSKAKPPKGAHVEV
# UniProt P46013: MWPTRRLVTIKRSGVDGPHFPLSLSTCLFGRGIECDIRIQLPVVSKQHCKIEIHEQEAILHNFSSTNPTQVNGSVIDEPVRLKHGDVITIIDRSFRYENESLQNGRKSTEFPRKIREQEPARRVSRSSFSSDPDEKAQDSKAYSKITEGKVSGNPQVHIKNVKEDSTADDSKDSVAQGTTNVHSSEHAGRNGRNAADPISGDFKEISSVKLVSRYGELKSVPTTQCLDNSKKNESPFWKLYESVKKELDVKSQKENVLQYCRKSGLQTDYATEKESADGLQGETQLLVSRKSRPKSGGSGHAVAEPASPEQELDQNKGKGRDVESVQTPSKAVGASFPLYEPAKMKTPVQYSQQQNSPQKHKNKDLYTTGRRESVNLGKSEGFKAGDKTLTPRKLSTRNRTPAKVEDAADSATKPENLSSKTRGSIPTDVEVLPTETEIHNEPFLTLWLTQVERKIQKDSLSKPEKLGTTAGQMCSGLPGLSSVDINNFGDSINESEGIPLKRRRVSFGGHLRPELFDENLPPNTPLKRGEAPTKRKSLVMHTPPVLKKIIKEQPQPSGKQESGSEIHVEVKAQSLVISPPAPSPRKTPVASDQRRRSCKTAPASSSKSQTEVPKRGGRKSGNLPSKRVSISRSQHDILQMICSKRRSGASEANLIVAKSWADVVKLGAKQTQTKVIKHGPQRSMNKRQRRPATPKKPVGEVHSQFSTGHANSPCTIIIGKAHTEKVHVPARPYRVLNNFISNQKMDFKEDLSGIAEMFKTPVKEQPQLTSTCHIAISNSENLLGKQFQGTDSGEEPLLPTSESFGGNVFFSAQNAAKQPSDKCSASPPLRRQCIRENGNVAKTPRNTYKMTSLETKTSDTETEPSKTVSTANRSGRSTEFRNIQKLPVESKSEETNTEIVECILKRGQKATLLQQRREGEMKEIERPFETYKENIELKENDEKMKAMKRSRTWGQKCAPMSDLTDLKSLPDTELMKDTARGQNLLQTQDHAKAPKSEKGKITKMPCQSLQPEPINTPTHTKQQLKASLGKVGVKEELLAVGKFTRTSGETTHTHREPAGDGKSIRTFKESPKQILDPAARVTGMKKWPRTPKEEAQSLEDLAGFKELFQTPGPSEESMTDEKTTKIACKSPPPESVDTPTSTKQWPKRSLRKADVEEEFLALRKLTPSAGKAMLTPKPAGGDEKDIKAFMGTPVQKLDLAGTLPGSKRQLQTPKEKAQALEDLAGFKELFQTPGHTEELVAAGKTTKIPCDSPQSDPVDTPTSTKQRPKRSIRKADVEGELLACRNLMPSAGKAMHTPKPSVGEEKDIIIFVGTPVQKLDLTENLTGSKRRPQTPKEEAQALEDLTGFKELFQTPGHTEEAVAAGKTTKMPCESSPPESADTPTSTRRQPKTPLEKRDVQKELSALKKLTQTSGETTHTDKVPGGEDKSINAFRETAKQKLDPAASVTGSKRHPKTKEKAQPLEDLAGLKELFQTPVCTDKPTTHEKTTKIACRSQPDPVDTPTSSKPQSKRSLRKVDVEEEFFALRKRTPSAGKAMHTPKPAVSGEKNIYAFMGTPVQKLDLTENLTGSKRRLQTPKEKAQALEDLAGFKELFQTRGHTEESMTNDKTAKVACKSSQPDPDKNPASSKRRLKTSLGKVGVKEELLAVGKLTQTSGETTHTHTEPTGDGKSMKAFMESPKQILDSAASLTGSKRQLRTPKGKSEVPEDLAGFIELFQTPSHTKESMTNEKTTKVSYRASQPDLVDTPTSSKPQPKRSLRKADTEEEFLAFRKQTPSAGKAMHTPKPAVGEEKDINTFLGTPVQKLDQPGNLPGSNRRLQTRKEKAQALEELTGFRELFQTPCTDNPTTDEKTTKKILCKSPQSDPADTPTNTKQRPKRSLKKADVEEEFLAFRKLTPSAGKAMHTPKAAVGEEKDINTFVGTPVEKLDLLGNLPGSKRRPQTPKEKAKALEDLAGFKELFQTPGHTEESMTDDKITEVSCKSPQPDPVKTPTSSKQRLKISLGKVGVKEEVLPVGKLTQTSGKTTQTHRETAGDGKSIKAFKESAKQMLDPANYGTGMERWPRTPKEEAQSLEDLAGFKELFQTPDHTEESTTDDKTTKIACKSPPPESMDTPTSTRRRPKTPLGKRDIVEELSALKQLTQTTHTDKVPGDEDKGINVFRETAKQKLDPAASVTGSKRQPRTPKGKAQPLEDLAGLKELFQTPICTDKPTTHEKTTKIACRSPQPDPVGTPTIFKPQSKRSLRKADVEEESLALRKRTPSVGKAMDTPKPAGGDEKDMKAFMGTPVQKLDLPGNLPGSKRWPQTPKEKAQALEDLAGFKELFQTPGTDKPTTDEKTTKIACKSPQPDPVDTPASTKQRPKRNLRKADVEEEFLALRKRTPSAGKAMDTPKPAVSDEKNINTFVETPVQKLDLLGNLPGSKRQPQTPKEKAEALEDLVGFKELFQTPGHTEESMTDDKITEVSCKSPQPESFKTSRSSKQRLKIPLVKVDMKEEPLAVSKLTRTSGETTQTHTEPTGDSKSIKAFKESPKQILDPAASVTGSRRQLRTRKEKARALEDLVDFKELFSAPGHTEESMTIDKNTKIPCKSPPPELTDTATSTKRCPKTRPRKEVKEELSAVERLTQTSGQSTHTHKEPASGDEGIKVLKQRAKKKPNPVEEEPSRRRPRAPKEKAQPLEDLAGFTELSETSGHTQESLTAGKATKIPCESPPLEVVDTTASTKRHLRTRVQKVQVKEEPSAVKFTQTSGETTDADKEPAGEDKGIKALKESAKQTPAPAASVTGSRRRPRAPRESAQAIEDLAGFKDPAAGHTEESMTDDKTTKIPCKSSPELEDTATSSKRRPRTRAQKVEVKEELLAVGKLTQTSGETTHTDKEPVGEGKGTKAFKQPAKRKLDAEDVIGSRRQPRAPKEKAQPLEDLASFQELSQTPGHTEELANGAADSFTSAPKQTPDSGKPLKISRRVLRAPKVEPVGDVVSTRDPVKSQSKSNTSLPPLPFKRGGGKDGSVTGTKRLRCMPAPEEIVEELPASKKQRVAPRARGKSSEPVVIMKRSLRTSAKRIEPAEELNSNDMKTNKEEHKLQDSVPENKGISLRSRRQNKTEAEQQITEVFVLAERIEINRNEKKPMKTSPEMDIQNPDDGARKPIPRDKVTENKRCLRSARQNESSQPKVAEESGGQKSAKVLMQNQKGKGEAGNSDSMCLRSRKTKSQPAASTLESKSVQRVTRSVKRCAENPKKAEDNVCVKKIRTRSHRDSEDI
# Results are given in words; binding and its absence hold for the method and conditions named. In cells and extracts the contact can be indirect. These calls come from enrichment with a bait or labelling near it, and not all partners need be listed.
# Target: Aurora Kinase A (AURKA), endogenous (human (endogenous in HeLa)) (UniProt O14965)
# Test: affinity purification with mass spectrometry; anti-AURKA immunoprecipitation from chromosome-binding proteins of M-phase HeLa cells treated with Act D, BMH-21 or CX5461; mass spectrometry
substance,measurement,value
"SMC2, endogenous (from UniProt O95347 1-1197)",binding,binds
"Ki-67, endogenous (from UniProt P46013 1-3256)",binding,binds
